Assay results as given in patent US5270302A (priority 1991, dated 1993).

Assay: general procedure: solution-phase peptide synthesis; N-hydroxysuccinimide active esters (EDCl)
[1] = late stage modification step, acetic acid salt
[2] = late stage modification step, trifluoroacetate

Substance: PEPTIDE1{[NMeTrp].[Lys(oTolNHCO)].[NMeAsp].F.[am]}$$$$V2.0
- step yield (late stage modification step, HCl): 79%

Substance: PEPTIDE1{[NMeTrp].[Lys_oTolNHCO].[NMeAsp].[aNal].[am]}$$$$V2.0
- step yield (late stage modification step): 37%

Substance: Isobutyloxycarbonyl-Trp-Lys(ε-N-(2-methylphenyl)aminocarbonyl)-(NMe)Asp-PheNH2
- step yield (late stage modification step): 82% yield

Substance: t-BOC-Trp-Lys(ε-N-(2-methylphenyl)aminocarbonyl)-Asp(β-(OCH2 --CO--N(CH3)2))-(NMe)PheNH2
- step yield (coupling step): 85% yield

Substance: PEPTIDE1{[Boc].W.[Lys(3PyAcr)].[NMeAsp].F.[am]}$$$$V2.0
- step yield (late stage modification step): 64%

Substance: PEPTIDE1{[Boc].W.[Lys(ThAcr)].[NMeAsp].F.[am]}$$$$V2.0
- step yield (late stage modification step): 62%

Substance: t-BOC-Trp-Lys-(ε-N-3-(3-pyridyl)acrylyl)-(NMe)Asp-(NMe)PheNH2
- step yield (late stage modification step): 66%

Substance: (3-Carboxylpropionyl)-Trp-Lys(ε-N-(2-methylphenyl)aminocarbonyl)-Asp(OBn)-(NMe)PheNH2
- step yield (late stage modification step): 95%

Substance: t-BOC-Trp-Lys-(NMe)AspPheNH2
- step yield [1]: 67%

Substance: PEPTIDE1{[Boc].W.[Lys(2MePhNHCO)].[Asp(OEtMor)].[NMePhe].[am]}$$$$V2.0
- step yield (coupling step): 74% yield

Substance: H-Trp-Lys(2-methylphenylaminocarbonyl)-AspN(Me)PheNH2 trifluoroacetate
- step yield [2]: 98%

Substance: t-BOC-Trp-Lys(ε-N-(2-methylphenyl)aminocarbonyl)-Asp(OBn)-(NMe)PheNH2
- step yield (coupling step): 95%

Substance: Methylaminocarbonyl-Trp-Lys(ε-N-(2-methylphenyl)aminocarbonyl)-Asp(OBn)-(NMe)PheNH2
- step yield (late stage modification step): 88%

Substance: t-BOC-Trp-(NMe)Lys(ε-N-(2-methylphenyl)aminocarbonyl)-Asp-(NMe)PheNH2
- isolated yield (whole synthesis): 50%

Substance: t-BOC-Trp-Lys-(NMe)Asp-(NMe)PheNH2
- step yield [1]: 86%

Substance: PEPTIDE1{[tBuNHCO].W.[Lys(Tac)].D.[NMePhe].[am]}$$$$V2.0
- difficulty met (late stage modification step): The reaction was incomplete after 1 day

Substance: t-BOC-(NMe)Trp-Lys(ε-N-(2-methylphenyl)aminocarbonyl)-(NMe)Asp-α-NalNH2
- step yield (late stage modification step): 73%

Substance: Trp-Lys(ε-N-(2-methylphenyl)aminocarbonyl)-Asp(OBn)-(NMe)PheNH2 trifluoroacetate
- step yield [2]: 92%

Substance: t-BOC-Trp-Lys(ε-benzyloxycarbonyl)-(NMe)Asp(OBn)-PheNH2
- step yield (coupling step): 68%

HELM strings list residues between dots; [ac] is acetyl, [am] amide, other brackets name non-standard units.
